In the series the test system is panelists. The experiment in a line: Sensory study, cool line scale test vs WS-3 (section 3.2). In kind it is in vivo, human. The following applies: for Average Bitterness: Table 3.3, n = 30. The protocol: Two typical sensory studies are described below each followed by a table summarizing sensory results of selected compounds of the invention (Tables 3.2 and 3.3).
All samples made with Low Sodium Buffer (LSB) pH ˜7.1 and contain 0.1% ethanol.
The test is a cool line scale test with timed 30 seconds interval. Compounds are rated on a 15 point line scale where 45 μM WS-3 (N-Ethyl-p-menthane-3-carboxamide) is ranked as a 5 in cool intensity. The present compound was tested to determine at what concentration the cooling intensity is equivalent to 45 μM WS-3. In each test, the panelist was presented with a 0 μM control sample, a 45 μM WS-3 control sample and the experimental compound sample and asked to rate the cooling intensity of each sample. Panelists were also asked to rate bitterness. In the table below there was no significant bitterness detected unless otherwise noted. Also, in the table below, n represents the number of tests completed for a given experiment (#panelists×#repetitions).

The source of these data is patent US11028052B2, “Compounds useful as modulators of TRPM8” (Firmenich Incorporated, priority 2013, dated 2021).

In the case of `C[C@H](C(=O)N(C)CC(=O)c1ccccc1)C1CCCCC1` [Example 3.2, (S)-2-Cyclohexyl-N-methyl-N-(2-oxo-2-phenylethyl)propanamide], under “5 μM”, the “Bitter offtastes (panel conclusion)” value is recorded as “no significant bitter offtastes” and the “Average Bitterness” value was found to be 0.4.
Turning to `CCNC(=O)C1CC(C)CCC1C(C)C` (stereo not drawn) [WS-3, N-Ethyl-p-menthane-3-carboxamide, reference compound], the “Average Bitterness” value (45 μM WS-3 control) came to 0.5.
